The record followed here is patent US20050058639A1.

Sequences of proteins named here, by UniProt entry; tags and fusion partners are left off. A change or cut given only in a name is not applied to a line headed by its entry. Residues count along the entry.
UniProt P51671, residues 24-97: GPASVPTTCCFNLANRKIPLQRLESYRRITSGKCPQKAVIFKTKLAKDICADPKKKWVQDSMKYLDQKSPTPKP
UniProt P80075, residues 24-99: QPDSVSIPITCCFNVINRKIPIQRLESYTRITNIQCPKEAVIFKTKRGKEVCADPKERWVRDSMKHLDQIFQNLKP
UniProt P80098, residues 24-99: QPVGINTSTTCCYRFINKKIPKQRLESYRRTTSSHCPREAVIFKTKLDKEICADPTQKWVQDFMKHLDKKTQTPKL
UniProt P13500: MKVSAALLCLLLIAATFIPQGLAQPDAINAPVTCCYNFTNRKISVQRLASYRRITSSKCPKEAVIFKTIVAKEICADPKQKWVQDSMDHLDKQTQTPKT

One test has as its target human eotaxin (human) (UniProt P51671). Briefly: Cross-Reactivity column, ELISA on coated chemokines. On the technique in general: ELISA stands for enzyme-linked immunosorbent assay.
Test [1] concerns the target recombinant human MCP-2 (human) (UniProt P80075). The description is as above.
In test [2] the target is recombinant human MCP-3 (human) (UniProt P80098). The test is described as above.
Test [3] has as its target human monocyte chemo-attractant protein-1 (MCP-1) (human) (UniProt P13500). As to the kind of experiment: Western blot. On the technique in general: Immunoblotting shows a protein as a band on a membrane.

Results are given in words; binding and its absence hold for the method and conditions named. Some binding calls cover weakened binding; strength is not graded here.

B1: anti-MCP-1 mAb 3.2 (antibody, V domains shown)
VH: QVQLVQSGAEVKKPGASVKVSCKVSGYTLSELSMHWVRQAPGKGLEWMGGFDPEDGEIIHAQKFQGRVTMTEDTSTDTAYMELSSLRSEDTAVYYCATGDFWSGYYLDWWGQGTLVTVSS
VL: EIVMMQSPATLSVSPGERATLSCRASQSVNSNLAWYQQKPGQAPRLLINGASTRATGIPARFSGSGSGTEFTLTISSLQSEDFAIYYCQQYNDWPTFTFGGGTKVEINR
Take B1: the binding result (in the test with human eotaxin (human); in test [1]; in test [2]) was “binds” in each case.

B2: anti-MCP-1 mAb 1.8.1 (antibody, V domains shown)
VH: QVQLVQSGAEVKKPGASVKVSCKVSGHIFTELSIHWVRQAPGKGLEWMGGFDPEDGETIYAQKFQGRVTMTEDTSTDTVYMELSSLRSEDTAVYYCATNDFWSGYFDYWGQGTLVTVSS
VL: DIVMTQSPGSLAVSLGERATINCKSSQSILFRSNNKNYLTWYQQKPGQPPKLLIYWASIRESGVPDRFSGSGSGSNFTLTITSLQAEDVAIYYCQQYYSSPWTFGQGTKVEIKR
Consider B2, for which the binding result in test [3] is on record as “binds”.
